The supplement of paper PMC5949888
± gives the standard deviation of the averaged measurements. Most values lie at the floor of the assay. Slopes are relative: functional sequences can read slightly below zero.

tested on: Saccharomyces cerevisiae PS128 hsf1 delta, HSF1(1-493) fusion; assay: growth estimate (transactivation domain function in HSF1 fusion, heat-shock survival) (a.u. (slope of normalised read count over time)); higher = stronger growth at 37°C, i.e. more transactivation activity; conditions: library: random library

Substance | growth estimate
TGCDNSDRRVLILRAPYYEI | < -0.25
HRG | < -0.25
SNRIQGLLTDSELP | < -0.25
EKAFVTSQAT | < -0.25
RHG | < -0.25
YVTRQFCIEVLPVARGFPRI | -0.0256
IPTVASKCQP | < -0.25
LEFAKA | < -0.25
RLTNELSFTRQSPVGGFHDS | < -0.25
CRTFCSRLVRCRMRHMVQSM | < -0.25
SGTGCHAARDP | < -0.25
TLTRLRQGPKLRAAAISEGP | < -0.25
GRAVITGAYDGFDCWEADRK | < -0.25
NSRSAIPALNGNLPWHTVSP | < -0.25
SLIAESL | < -0.25
LLGTVSLH | < -0.25
GLSFRLSSSSNPAGGGFCCE | < -0.25
SVDVLN | < -0.25
TCTYYGIGSSVLRANPGGPN | < -0.25
KINLY | < -0.25
PPAPTAR | < -0.25
PTSHPP | < -0.25
TLDVITLGVCCVPRCTSGRW | < -0.25
QRSVSFCCEVIENSPGKEDD | < -0.25
RAVLARAFHARGGKSHGIWH | < -0.25

Random excerpt: 5 entries already listed.
Substance | growth estimate
HRG | < -0.25
NSRSAIPALNGNLPWHTVSP | < -0.25
PPAPTAR | < -0.25
TCTYYGIGSSVLRANPGGPN | < -0.25
LEFAKA | < -0.25

(list continues)

Substance | growth estimate
KRVSQSATLCHRSESSQSLT | < -0.25
WVGPKAEKCHHS | < -0.25
RFDRDGPFSVGRSAESARIS | < -0.25
NRLGFQR | < -0.25
AYDGANRNSWSWCSVL | < -0.25
LIVESV | < -0.25
LENDAL | < -0.25
CRGCVTNGRKKRMVMCHPEQ | < -0.25
SFGVTLLRARTSR | < -0.25
SSLAVSYMWGATRPF | < -0.25
FPRTLVFYVGRNQ | < -0.25
VVLP | < -0.25
IGPRLLIHTAFSGHTAAVTC | < -0.25
YSQTGLVPCRRSLIDTR | < -0.25
RYILV | < -0.25
FSGTG | -0.248
KVHTALWYRVRQSGSYCLTN | < -0.25
VFRGRQS | < -0.25
RKEYDPLAIQATGLRALGGP | < -0.25
LCSMRCWNTEV | < -0.25
PRNRNGECSAGGCIGKYISP | < -0.25
ALGGNSVYNVRCGWNAPALS | < -0.25
GRE | < -0.25
PGIPGVGV | < -0.25
PQLCGINDQKSWVGRTLSND | < -0.25

Substance | growth estimate
NEKGACTAQVGLQLLRDVVQ | < -0.25
GFSDRSISWTKPDDYVRRAI | < -0.25
HCV | < -0.25
SVSIVL | < -0.25
VRAIALHGRF | < -0.25
FMNTI | < -0.25
LGHFGA | < -0.25
KVEPLKLTEGRF | < -0.25
PIRVEQPFLTRWVLLSIGG | < -0.25
ANRSRRAMDLVWSASSQRQP | < -0.25
KGRSETRPFQRMSYSARLHP | < -0.25
LLGPF | < -0.25
KTAFTPHSK | < -0.25
RQPYLRCAERI | < -0.25
LDPSARCRWIFCGGLG | < -0.25
PYRYDPLNKVALIVGVHPDS | < -0.25
ETWGRQYVRLLLG | -0.186
GLQGRPKCLG | < -0.25
TSVRIDMVKLRMREIVCCFS | < -0.25
LYRSCHARSRLYDMSRAITT | < -0.25
MSERRVMTQIKSL | < -0.25
LRR | -0.2491 ± 0.0021
CEFKRVWPQGMCPCLPPVRS | -0.244
GCCRDLAWVAD | < -0.25
RGHTHGVCYLSCRYRFFRCN | < -0.25

A few values from the list:
In growth estimate, GFSDRSISWTKPDDYVRRAI is entered as < -0.25
In growth estimate, NEKGACTAQVGLQLLRDVVQ is entered as < -0.25

The listing continues:

Substance | growth estimate
GLLVSIRGRIPVGSLSPVGT | < -0.25
STIIDRAYAM | < -0.25
DNSNYALIMACGCAPPESGR | < -0.25
PTWSGYSFVDNQAAGKRSCT | < -0.25
EIM | < -0.25
PYSATTQNFSNGLLPRYVYP | < -0.25
GLTLRTFLLPQERVLLQFLT | < -0.25
HSVKAKDG | < -0.25
RGTNRTPAEGLVRHW | < -0.25
SWGLLL | < -0.25
YTE | < -0.25
GYYGLLRGFEPLLSTTSPVS | < -0.25
GGSVGKPKNQER | < -0.25
GSHEFLALKYEMTQPDQPGS | < -0.25
PITAIFRVACAKTA | < -0.25
GDVMGRRSERVLSAKIPQFS | < -0.25
KGEG | < -0.25
LELKLTLGGRVDSLLSKFRS | < -0.25
QEDNNSELRNWAGKGKPVVR | < -0.25
RPSGLDLGRRIPVFCRGLLL | < -0.25
VTGY | < -0.25
HCGFLLLNLYRQIRLVGYEV | < -0.25
AGVPGRMSYTSKVVRDVEVA | < -0.25
LYNAVGQYRLM | < -0.25
ILCSYHRRACWVS | < -0.25

Substance | growth estimate
TNQSPSAPHTGRQRNAHKSG | < -0.25
NWILNVIKVLRKPDCYRKEL | < -0.25
TQSVAISDNPGSQGY | < -0.25
RDIGGMNSGWPPCVHILVGC | < -0.25
VPIGLRKSRHTAAPWSHFST | < -0.25
SGI | < -0.25
PTLTFMSSWVEHIIDISKSI | < -0.25
CIKLKPCP | < -0.25
RGLCEERLNTRSC | < -0.25
GASVRH | < -0.25
WGLLFCSQFYVRSRMLLTYG | < -0.25
GHHALS | < -0.25
HTRSKGCGLTARRNASLVGS | < -0.25
VLPSFELPVAVLWPRVT | < -0.25
GSLEL | < -0.25
PVHRNRGQGLKKCPKSADCV | < -0.25
LRRIGEELKRG | < -0.25
VADRVKSTYVRVQSRLPRPA | < -0.25
WTQ | < -0.25
ELGRTVYYVLGHDKSAVGEP | < -0.25
SCSK | < -0.25
SQP | < -0.25
GREH | < -0.25
TALCVVSY | -0.245
QLEAR | < -0.25

Substance | growth estimate
NPPSAYGQDIPTLWSAQEYS | < -0.25
AIGRDPGQHRKVRMAPR | < -0.25
SRTSHGPGTVSY | < -0.25
ALEGSVFSTQYTWQKQGDSY | -0.11
GMRSFAQRRLLLGRLRPPLL | < -0.25
EKRAHVLRT | < -0.25
SLIRRSDLMH | < -0.25
VWRIIINVSVRASPSSRGPI | < -0.25
RKIVSDPEAGSFERPPRTDH | < -0.25
VILCARSMRHRFTGRKSREL | < -0.25
AQTKEETVSSSRSAISRKPQ | < -0.25
RLDRWRVVIDSQHGFSRGAK | < -0.25
GVAQKGFLSTGRARDGCGEA | < -0.25
ISGD | < -0.25
SSIDLVGPGPWWEPNLGTGN | < -0.25
FPVTFSVDQRRKHWLTQLMQ | < -0.25
LSC | -0.245
IYGYGLLLTRIFHSLHSSRL | < -0.25
KGFVGSNECGNYITSEEHSS | < -0.25
DKVVCFITWHVY | -0.229
QGWESSP | < -0.25
TEHL | < -0.25
KCA | < -0.25
PPR | -0.246
